Laboratory results published in the supplement of paper PMC7877785.
± gives the uncertainty stated by the source. Many of these values have a large error.

Experiment: self-splicing fitness, log relative to wild type (ln ratio); higher = more splicing; Tetrahymena group I intron in knt gene, E. coli kanamycin selection, DiMSum; sequences stand for … in CUCUCU…GGAGGGAAAAGUUAUCAGGCAUGCACCUGGUAGCUAGUCUUUAAACCAAUAGAUUGCAUCGGUUUAAAAGGCAAGACCGUCAAAUUGCGGGAAAGGGGUCAACAGCCGUUCAGUACCAAGUCUCAGGGGAAACUUUGAGAUGGCCUUGCAAAGGGUAUGGUAAUAAGCUGACGGACAUGGUCCUAACCACGCAGCCAAGUCCUAAGUCAACAGAUCUUCUGUUGAUAUGGAUGCAGUUCACAGACUAAAUGUCGGUCGGGGAAGAUGUAUUCUUCUCAUAAGAUAUAGUCGGACCUCUCCUUAAUGGGAGCUAGCGGAUGAAGUGAUGCAACACUGGAGCCGCUGGGAACUAAUUUGUAUGCGAAAGUAUAUUGAUUAGUUUUGGAGUACUCGUGGUCG
How it was run: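 Pooled colonies went to amplicon sequencing on an Illumina HiSeq 2500 after six replicate transformations. The plates were LB agar with 100 μg/mL carbenicillin, 50 μM IPTG and 0.2% rhamnose, with or without 25 μg/mL kanamycin, incubated overnight at 37°C or 30°C. The E. coli BL21(DE3) library had all eight P1ex-region intron nucleotides randomised, the intron placed in the knt kanamycin-resistance gene on pET-22b(+). DiMSum fitness is the error-weighted combination of replicate fold changes, kanamycin against none, normalised to wild type.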

| Sequence | self-splicing fitness (ln) (30 °C) | self-splicing fitness (ln) (37 °C) |
| --- | --- | --- |
| CCAUAGCAAUAUUACGCUGA | -3.52 ± 0.41 | -1.99 ± 0.28 |
| CUUUAGCAAUAUUACGAACA | – | -2.99 ± 0.53 |
| AGUGAGCAAUAUUACGAAUA | -3.93 ± 0.61 | – |
| UUUUAGCAAUAUUACGCCCC | -0.995 ± 1.2 | -0.44 ± 1.4 |
| UACGAGCAAUAUUACGCAUC | -4.38 ± 0.51 | – |
| GGAGAGCAAUAUUACGAUGA | – | -3.21 ± 1 |
| GGUGAGCAAUAUUACGCGGG | -3.98 ± 0.59 | -1.13 ± 0.71 |
| CUGGAGCAAUAUUACGGCCG | – | -1.38 ± 0.56 |
| GCGGAGCAAUAUUACGACUG | -3.9 ± 1 | – |
| AGUUAGCAAUAUUACGCAUU | -3.25 ± 0.25 | -0.806 ± 0.17 |
| UUUUAGCAAUAUUACGUUAC | -4 ± 0.52 | -3.12 ± 0.73 |
| UUUUAGCAAUAUUACGGUAC | -3.83 ± 0.73 | -2.54 ± 1.1 |
| CUCAAGCAAUAUUACGACCA | -3.59 ± 0.52 | – |
| GCCCAGCAAUAUUACGAAGA | -1.46 ± 0.12 | -0.344 ± 0.14 |
| CUCAAGCAAUAUUACGCAAC | – | -2.39 ± 0.78 |
| CUGCAGCAAUAUUACGAUGG | -1.7 ± 0.08 | -1.18 ± 0.1 |
| AUGGAGCAAUAUUACGGAGU | -3.96 ± 0.54 | – |
| UCGUAGCAAUAUUACGAGGG | -4.15 ± 0.73 | -1.62 ± 0.57 |
| AUUGAGCAAUAUUACGAUCC | – | -1.47 ± 1.2 |
| CUAUAGCAAUAUUACGUGCC | – | -3.86 ± 0.73 |
| AGAGAGCAAUAUUACGCCCG | -2.79 ± 1.2 | -0.517 ± 0.87 |
| CGAGAGCAAUAUUACGUGCC | -4.55 ± 1 | – |
| UCGGAGCAAUAUUACGGCUC | – | -0.602 ± 0.51 |
| ACAGAGCAAUAUUACGCUGC | – | -3.36 ± 0.52 |

| Sequence | self-splicing fitness (ln) (30 °C) | self-splicing fitness (ln) (37 °C) |
| --- | --- | --- |
| CUGUAGCAAUAUUACGCUGC | – | -1.91 ± 0.51 |
| GGAAAGCAAUAUUACGGAAC | – | -1.44 ± 0.56 |
| UGAUAGCAAUAUUACGAGGG | -4.89 ± 0.59 | – |
| GUUGAGCAAUAUUACGGACC | – | -1.09 ± 0.6 |
| UUUGAGCAAUAUUACGGGCC | -3.57 ± 0.61 | -3.44 ± 0.6 |
| UUGGAGCAAUAUUACGGAGC | – | -1.85 ± 0.66 |
| AUUGAGCAAUAUUACGAAGC | -5.27 ± 1 | -1.44 ± 0.69 |
| AUGGAGCAAUAUUACGUGUG | -5.38 ± 0.71 | – |
| CGGCAGCAAUAUUACGUUCG | -5.03 ± 0.51 | – |
| AUAUAGCAAUAUUACGUGGC | -4.91 ± 0.59 | – |
| AUGUAGCAAUAUUACGGUCG | -1.44 ± 0.12 | -1.59 ± 0.17 |
| UAAGAGCAAUAUUACGGACC | -2.25 ± 1.1 | -1.13 ± 1.2 |
| CAUGAGCAAUAUUACGCUGC | -3.48 ± 1.1 | -3.91 ± 1 |
| CUAUAGCAAUAUUACGCCUU | -3.59 ± 0.62 | – |
| UGCGAGCAAUAUUACGCCCU | – | -2.3 ± 1.1 |
| CAAGAGCAAUAUUACGCUUG | -4.12 ± 1 | – |
| ACGUAGCAAUAUUACGCGUU | -4.72 ± 0.51 | – |
| UAGGAGCAAUAUUACGAAGA | -3.62 ± 0.6 | -2.9 ± 0.61 |
| GUAAAGCAAUAUUACGCACG | -0.557 ± 0.067 | -0.242 ± 0.093 |
| GGGAAGCAAUAUUACGUCCC | -1.32 ± 1.4 | 0.127 ± 0.88 |
| AUUGAGCAAUAUUACGUAUG | – | -2.76 ± 0.74 |
| CUCGAGCAAUAUUACGAGGA | – | -2.7 ± 0.62 |
| CGUCAGCAAUAUUACGCGGA | -4.43 ± 0.72 | – |
| CCUGAGCAAUAUUACGCGAC | -1.05 ± 0.67 | 0.193 ± 0.55 |

| Sequence | self-splicing fitness (ln) (30 °C) | self-splicing fitness (ln) (37 °C) |
| --- | --- | --- |
| UUGGAGCAAUAUUACGAAGC | -2.37 ± 0.54 | -1.33 ± 0.61 |
| CGAGAGCAAUAUUACGACCA | – | -1.12 ± 0.54 |
| CUAUAGCAAUAUUACGAAAU | -3.17 ± 0.62 | -0.234 ± 1.4 |
| GAAAAGCAAUAUUACGUGCU | -1.8 ± 0.098 | -0.978 ± 0.1 |
| UUCUAGCAAUAUUACGGACC | – | -2.09 ± 0.65 |
| CCAGAGCAAUAUUACGGCAU | -3.94 ± 0.6 | -2.9 ± 0.74 |
| GAUGAGCAAUAUUACGACAA | – | -3.03 ± 0.74 |
| UAGUAGCAAUAUUACGAAAC | -4.04 ± 0.74 | – |
| CGACAGCAAUAUUACGCCCG | – | -0.858 ± 0.57 |
| CUUGAGCAAUAUUACGGAUC | -4.33 ± 0.72 | – |
| GGAUAGCAAUAUUACGCCGU | -1.74 ± 0.25 | -0.441 ± 0.2 |
| UGGGAGCAAUAUUACGUCAA | -3.27 ± 0.63 | -3.03 ± 0.53 |
| CUUAAGCAAUAUUACGAAAA | – | -3.13 ± 0.61 |
| ACUCAGCAAUAUUACGCGGG | -2.91 ± 0.15 | -2.68 ± 0.18 |
| GUAAAGCAAUAUUACGCCAC | -5.73 ± 1 | – |
| CCGGAGCAAUAUUACGCCGU | – | -1.82 ± 0.52 |
| UAGUAGCAAUAUUACGUUGC | -1.02 ± 0.51 | – |
| CGAGAGCAAUAUUACGGCCA | -1.08 ± 1 | -1.95 ± 0.79 |
| GAGUAGCAAUAUUACGUAGC | – | -3.23 ± 0.6 |
| UUUGAGCAAUAUUACGCACC | – | -0.402 ± 0.57 |
| UACCAGCAAUAUUACGAUAG | -1.1 ± 0.067 | 0.0475 ± 0.097 |
| UCUUAGCAAUAUUACGGCAA | -2.96 ± 0.53 | – |
| CGUAAGCAAUAUUACGGGCU | -4.47 ± 0.72 | – |
| CUGGAGCAAUAUUACGCGCU | – | -2.47 ± 0.75 |

An excerpt of these results, as tab-separated lines.
Sequence	self-splicing fitness (ln) (30 °C)	self-splicing fitness (ln) (37 °C)
CUCGAGCAAUAUUACGAGGA	–	-2.7 ± 0.62
CGUCAGCAAUAUUACGCGGA	-4.43 ± 0.72	–
CCUGAGCAAUAUUACGCGAC	-1.05 ± 0.67	0.193 ± 0.55
UUGGAGCAAUAUUACGAAGC	-2.37 ± 0.54	-1.33 ± 0.61
CGAGAGCAAUAUUACGACCA	–	-1.12 ± 0.54
CUAUAGCAAUAUUACGAAAU	-3.17 ± 0.62	-0.234 ± 1.4
GAAAAGCAAUAUUACGUGCU	-1.8 ± 0.098	-0.978 ± 0.1
UUCUAGCAAUAUUACGGACC	–	-2.09 ± 0.65
CCAGAGCAAUAUUACGGCAU	-3.94 ± 0.6	-2.9 ± 0.74
GAUGAGCAAUAUUACGACAA	–	-3.03 ± 0.74
UAGUAGCAAUAUUACGAAAC	-4.04 ± 0.74	–
CGACAGCAAUAUUACGCCCG	–	-0.858 ± 0.57
CUUGAGCAAUAUUACGGAUC	-4.33 ± 0.72	–
GGAUAGCAAUAUUACGCCGU	-1.74 ± 0.25	-0.441 ± 0.2
UGGGAGCAAUAUUACGUCAA	-3.27 ± 0.63	-3.03 ± 0.53
CUUAAGCAAUAUUACGAAAA	–	-3.13 ± 0.61
ACUCAGCAAUAUUACGCGGG	-2.91 ± 0.15	-2.68 ± 0.18
GUAAAGCAAUAUUACGCCAC	-5.73 ± 1	–
CCGGAGCAAUAUUACGCCGU	–	-1.82 ± 0.52
UAGUAGCAAUAUUACGUUGC	-1.02 ± 0.51	–
CGAGAGCAAUAUUACGGCCA	-1.08 ± 1	-1.95 ± 0.79
GAGUAGCAAUAUUACGUAGC	–	-3.23 ± 0.6
UUUGAGCAAUAUUACGCACC	–	-0.402 ± 0.57
UACCAGCAAUAUUACGAUAG	-1.1 ± 0.067	0.0475 ± 0.097

Following part:

| Sequence | self-splicing fitness (ln) (30 °C) | self-splicing fitness (ln) (37 °C) |
| --- | --- | --- |
| CGCUAGCAAUAUUACGCCUC | -1.84 ± 0.56 | -1.98 ± 0.65 |
| GCAGAGCAAUAUUACGCCAC | – | 0.0981 ± 1.2 |
| AGAAAGCAAUAUUACGCCAC | -4.72 ± 0.72 | – |
| GGUGAGCAAUAUUACGAACC | -4.09 ± 0.55 | – |
| AAAUAGCAAUAUUACGGGGA | -3.71 ± 0.25 | -2.86 ± 0.19 |
| GUUUAGCAAUAUUACGAACU | -4.26 ± 1 | -2.69 ± 0.44 |
| UGAGAGCAAUAUUACGGGGU | -4.04 ± 1.1 | – |
| AUGGAGCAAUAUUACGACUC | -3.14 ± 0.61 | -1.81 ± 0.52 |
| CGGGAGCAAUAUUACGGUGC | – | -2.2 ± 0.64 |
| ACCAAGCAAUAUUACGCGUA | -1.11 ± 0.075 | -0.487 ± 0.075 |
| CGAUAGCAAUAUUACGCUCG | -3.93 ± 0.53 | -2.03 ± 0.47 |
| CCUUAGCAAUAUUACGGCGC | – | -3.7 ± 0.59 |
| CAAGAGCAAUAUUACGACUG | -1.57 ± 0.12 | -1.19 ± 0.19 |
| UCCGAGCAAUAUUACGCGAU | -4.9 ± 0.71 | – |
| AAUGAGCAAUAUUACGAUAC | -4 ± 0.33 | -2.47 ± 0.61 |
| CCGAAGCAAUAUUACGUGCA | – | -2.15 ± 0.5 |
| UGGGAGCAAUAUUACGUACG | -2.41 ± 0.26 | -2.34 ± 0.21 |
| CAUUAGCAAUAUUACGUAUC | -3.14 ± 0.31 | -2.26 ± 0.28 |
| GGGAAGCAAUAUUACGCGCU | -2.66 ± 0.28 | -0.954 ± 0.27 |
| ACGGAGCAAUAUUACGCUAA | -2.57 ± 0.77 | – |
| AAGGAGCAAUAUUACGAACA | -3.77 ± 1 | -1.69 ± 0.84 |
| CAAUAGCAAUAUUACGUAGC | -4.08 ± 0.53 | – |
| UAGCAGCAAUAUUACGUCUA | -0.114 ± 0.073 | 0.146 ± 0.084 |
| CCUUAGCAAUAUUACGACCU | -2.79 ± 0.2 | -1.77 ± 0.29 |

Quoted at random: 2 entries already listed

| Sequence | self-splicing fitness (ln) (30 °C) | self-splicing fitness (ln) (37 °C) |
| --- | --- | --- |
| GUUUAGCAAUAUUACGAACU | -4.26 ± 1 | -2.69 ± 0.44 |
| UAGUAGCAAUAUUACGUUGC | -1.02 ± 0.51 | – |

Additional records:

| Sequence | self-splicing fitness (ln) (30 °C) | self-splicing fitness (ln) (37 °C) |
| --- | --- | --- |
| GAGGAGCAAUAUUACGCAAG | -2.82 ± 0.63 | -1.29 ± 0.87 |
| GCAGAGCAAUAUUACGACCU | -1.27 ± 0.91 | – |
| UAAUAGCAAUAUUACGGGAC | -2.77 ± 0.54 | -3.43 ± 0.73 |
| CCGUAGCAAUAUUACGACCU | – | 0.354 ± 0.6 |
| CGGUAGCAAUAUUACGCAUC | -4.61 ± 1 | – |
| UAGUAGCAAUAUUACGCAAC | – | -1.14 ± 0.64 |
| CGUUAGCAAUAUUACGCAAU | -4.34 ± 0.72 | -1.02 ± 0.23 |
| CGUGAGCAAUAUUACGGGAA | -3.47 ± 1 | – |
| GGUAAGCAAUAUUACGCAAC | -1.08 ± 0.67 | – |
| GGUCAGCAAUAUUACGUCCC | -3.15 ± 0.68 | -2.44 ± 0.56 |
| CGCGAGCAAUAUUACGCUCU | -1.84 ± 0.58 | – |
| GCUUAGCAAUAUUACGGUUA | -0.517 ± 0.11 | -0.548 ± 0.11 |
| AGGGAGCAAUAUUACGUCUG | -4.84 ± 0.59 | – |
| UUCCAGCAAUAUUACGGGGA | -4.8 ± 0.59 | – |
| CAUUAGCAAUAUUACGCUAA | – | -3.66 ± 0.6 |
| GUUGAGCAAUAUUACGUUGC | – | -1.37 ± 0.74 |
| AAAUAGCAAUAUUACGAGGC | – | -2.84 ± 0.6 |
| CCAAAGCAAUAUUACGGCCC | – | -2.72 ± 0.54 |
| GUAGAGCAAUAUUACGAAUU | -2.35 ± 0.21 | -2.01 ± 0.35 |
| CGGGAGCAAUAUUACGCGGU | -3.48 ± 0.52 | – |
| AGAUAGCAAUAUUACGCUCC | -1.23 ± 0.56 | – |
| GUUGAGCAAUAUUACGCCAC | -4.23 ± 0.73 | -1.6 ± 0.61 |
